PubChem BioAssay AID652272, Drosophila RNAi Screening Center | 2013
In all, the deposit lists about 21,000 reagents; this is an unselected part of those with a known target gene and a result. In the full data, 503 (2.4%) got an active call. 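Raw plate light values, not normalised; calls rest on replicate z-scores that were not deposited; hits include reporter decreases as well as increases.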 A number with no mark means an inactive call. A plus sign joins genes that one reagent is predicted to hit. Not given: the amount of reagent, the time to read-out.

Purpose: 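Genome-wide knock-down search for components of Hedgehog signalling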 (primary screen)
Cells: Drosophila clone 8 (Cl8) cells
Knock-down reagent: long dsRNA against Drosophila genes
Read-out: 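Firefly light from a Hedgehog-responsive ptc promoter reporter and Renilla reference light, both read on a plate reader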
Scale: firefly Hh reporter signal: higher = more ptc reporter light; Renilla reference signal: higher = more Renilla control light
Call rule: 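Hit when the z-score averaged over two replicates is under -2 or over +3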
Calls: active = hit: reporter lowered or raised; inactive = not a hit

Gene	amplicon	firefly Hh reporter signal, replicate 1	firefly Hh reporter signal, replicate 2	firefly Hh reporter signal, replicate 3	Renilla reference signal, replicate 1	Renilla reference signal, replicate 2
CG10841	DRSC14271	2.26e5	88529		8247	1080
TBC1d7	DRSC15985	5.00e5	86621		25723	2976
TBC1D23	DRSC00657	1.25e5	79594		3249	2096
vls	DRSC02101	1.03e5	56370		3696	2476
lectin-37Db	DRSC03279	1.02e5	47880		2836	4629
Polr2G	DRSC16068	1.31e5	87488		4193	2880
CG7488	DRSC16250	90356	1.01e5		1364	1874
CG6294 + CG6299 + CG15642	DRSC19981	84648	2.34e5		2631	9766
Abca3	DRSC20546	1.15e5	2.87e5		3338	11165
Acp95EF + Spase22-23	DRSC14102	6.42e5	1.20e5		30586	3812
Nmdmc	DRSC16760	1.19e5	1.04e5		4940	3830
CG6712	DRSC02981	1.41e5	91889		6972	4688
e(y)3	DRSC19450	70146 (active)	62384		2907	2891
Muc68E	DRSC09146	8.29e5	2.02e5	1.06e5	5187	8261
CG13751	DRSC06422	1.09e5	66441		2513	5517
Mhc	DRSC03367	91441	70875		2275	5955
CG14615	DRSC20627	45175	1.63e5		1296	7344
CG18180	DRSC10304	79063	63226		3088	2872
mtm	DRSC03576	88194	71780		3862	3554
CG4438	DRSC02746	85569	37700		2615	5152
CG17107	DRSC02575	1.34e5	5.09e5	54770	2026	26763
CG5515	DRSC15825	91637	77693		4597	3036
CG7896	DRSC16335	95352	59576		2250	2012

As entered above:
Result of Acp95EF + Spase22-23 [DRSC14102] under “firefly Hh reporter signal, replicate 2”: 1.20e5
CG18180 [DRSC10304], firefly Hh reporter signal, replicate 2 = 63226
CG10841 [DRSC14271], Renilla reference signal, replicate 2: 1080
